# No constants are given. Whether binding was seen depends on the method and setting. Some binding calls cover weakened binding; strength is not graded here.
# Amino acid sequences for entries named in this document (tags omitted). A change or cut given only in a name is not applied to a line headed by its entry.
# UniProt Q08722: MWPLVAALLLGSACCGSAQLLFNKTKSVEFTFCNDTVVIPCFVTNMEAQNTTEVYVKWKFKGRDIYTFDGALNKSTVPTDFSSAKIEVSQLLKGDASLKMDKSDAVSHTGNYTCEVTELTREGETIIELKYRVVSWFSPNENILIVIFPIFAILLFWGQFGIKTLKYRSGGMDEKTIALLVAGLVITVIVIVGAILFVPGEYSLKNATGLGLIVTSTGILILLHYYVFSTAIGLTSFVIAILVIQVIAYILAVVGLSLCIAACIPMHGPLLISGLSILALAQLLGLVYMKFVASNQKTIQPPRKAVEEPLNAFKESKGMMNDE
# Key:
# [1] = target: cynomolgus monkey CD47 on CHO-K1 cells (cynomolgus monkey); test: flow cytometry on CHO-K1/cynoCD47 cells
# [2] = target: human CD47-His protein (human) (UniProt Q08722); test: SPR (Biacore T200), antibody captured on the chip, human CD47-His as analyte
# [3] = target: cynomolgus monkey CD47 on CHO-K1 cells (cynomolgus monkey); test: flow cytometry on CHO-K1/cyno CD47 cells
# CD47 protein = test: ELISA on CD47 protein; x axis is log10 of mAb (ng/ml)
Binder,binding [1],binding [2],binding [3],binding (CD47 protein)
"98G5F11 (antibody, V domains shown) VH: QVQLQQSGPQLVRPGASVKISCKASGYSFTNYWMHWMKQRPGQGLEWIGMIDPSDSETRLNQQFKDKATLTVDKSSSTAYMQLSSPTSEDSAVYYCARLGRYYFDFWGQGTTLTVSS VL: NIVMTQSPKSMSVSVGERVTLSCRASEIVGTYVSWYQQKPEQSPKLLIYGASNRFTGVPDRFTGSRSATDFSLTISNVQAEDLADYLCGQSYDSPYTFGGGTKLEIK",–,binds,binds,binds
"98E2E12 (antibody, V domains shown) VH: QVQLQQSGPQLVRPGASVKISCKASGYSFTNHWMHWMKQRPGQGLEWIGMIDPSDSETRLNQQFKDKATLTVDKSSSTAYMQLSSPTSEDSAVFYCARLGRYYFDYWGQGTTLTVSS VL: NIVMTQSPKSMSVSVGERVTLSCRASDIVGTYVSWYQQKPEQSPKLLIYGASNRYTGVPDRFTGSRSATDFSLTISNVQAEDLADYLCGQSYDSPYTFGGGTKLEIK",–,–,binds,–
"98G5F6 (antibody, V domains shown) VH: QVQLQQSGPQLVRPGASVKISCKASGYSFTNYWMHWMKQRPGQGLEWIGMIDPSDSETRLNQQFKDKATLTVDKSSSTAYMQLSSPTSEDSAVYYCARLGRYYFDFWGQGTTLTVSS VL: NIVMTQSPKSMSVSVGERVTLSCRASEIVGTYVSWYQQKPEQSPKLLIYGASNRFTGVPDRFTGSRSATDFSLTISNVQAEDLADYLCGQSYDSPYTFGGGTKLEIK",–,binds,binds,–
"98E2E7 (antibody, V domains shown) VH: QVQLQQSGPQLVRPGASVKISCKASGYSFTNHWMHWMKQRPGQGLEWIGMIDPSDSETRLNQQFKDKATLTVDKSSSTAYMQLSSPTSEDSAVFYCARLGRYYFDYWGQGTTLTVSS VL: NIVMTQSPKSMSVSVGERVTLSCRASDIVGTYVSWYQQKPEQSPKLLIYGASNRYTGVPDRFTGSRSATDFSLTISNVQAEDLADYLCGQSYDSPYTFGGGTKLEIK",–,–,binds,–

# Now from value to binder:
binding [1],binding [2],binding [3],binding (CD47 protein),Binder
binds,–,–,–,108VH4.M4_VL1.M1-hIgG2 (antibody) heavy: EVQLVQSGAEVKKPGSSVKVSCKASGYSFTHHWIHWVRQAPGQGLEWMGMIDASDSETRLSQKFKDRVTITADKSTSTAYMELSSLRSEDTAVYYCARLGRYYFDYWGQGTTVTVSSASTKGPSVFPLAPCSRSTSESTAALGCLVKDYFPEPVTVSWNSGALTSGVHTFPAVLQSSGLYSLSSVVTVPSSNFGTQTYTCNVDHKPSNTKVDKTVERKCCVECPPCPAPPVAGPSVFLFPPKPKDTLMISRTPEVTCVVVDVSHEDPEVQFNWYVDGVEVHNAKTKPREEQFNSTFRVVSVLTVVHQDWLNGKEYKCKVSNKGLPAPIEKTISKTKGQPREPQVYTLPPSREEMTKNQVSLTCLVKGFYPSDIAVEWESNGQPENNYKTTPPMLDSDGSFFLYSKLTVDKSRWQQGNVFSCSVMHEALHNHYTQKSLSLSPGK light: EIVLTQSPATLSLSPGERATLSCRASENVGTYISWYQQKPGQAPRLLIYGASNRYTGIPARFSGSGSGTDFTLTISSLEPEDFAVYYCGESYGHLYTFGGGTKVEIKRTVAAPSVFIFPPSDEQLKSGTASVVCLLNNFYPREAKVQWKVDNALQSGNSQESVTEQDSKDSTYSLSSTLTLSKADYEKHKVYACEVTHQGLSSPVTKSFNRGEC
–,binds,–,–,"107F11C4 (antibody, V domains shown) VH: EVQLQQSGAEFVKPGASVKLSCTASGFNIEDTYMHWVKQRPEQGLEWIGMIDPANGKTKYGPRFQDKATVTADTSSNTANLQLSSLTSEDTAVYYCADGIGYYVGAMDYWGQGTSVTVSS VL: DIQMNQSPSSLSASLGDTITITCHASQNINVWLSWYQQKPGNIPKLLIYKASNLHTGVPSRFSGSGSGTGFTLTISSLQPEDIATYYCQQGHSYPYTFGGGTKLEIK"
–,binds,binds,binds,"107F11B11 (antibody, V domains shown) VH: EVQLQQSGAEFVKPGASVKLSCTASGFNIEDTYMHWVKQRPEQGLEWIGMIDPANGKTKYGPRFQDKATVTADTSSNTANLQLSSLTSEDTAVYYCADGIGYYVGAMDYWGQGTSVTVSS VL: DIQMNQSPSSLSASLGDTITITCHASQNINVWLSWYQQKPGNIPKLLIYKASNLHTGVPSRFSGSGSGTGFTLTISSLQPEDIATYYCQQGHSYPYTFGGGTKLEIK"
–,binds,–,–,"107F11F10 (antibody, V domains shown) VH: EVQLQQSGAEFVKPGASVKLSCTASGFNIEDTYMHWVKQRPEQGLEWIGMIDPANGKTKYGPRFQDKATVTADTSSNTANLQLSSLTSEDTAVYYCADGIGYYVGAMDYWGQGTSVTVSS VL: DIQMNQSPSSLSASLGDTITITCHASQNINVWLSWYQQKPGNIPKLLIYKASNLHTGVPSRFSGSGSGTGFTLTISSLQPEDIATYYCQQGHSYPYTFGGGTKLEIK"
–,–,–,binds,"112E5F2 (antibody, V domains shown) VH: QVQLQQSGPQLVRPGASVKISCKASGYSFTNNWMHWMKQRPGQGLEWIGMIDPSDSETRLNQQFRDKATLTVDKTSSTAYMQLSSPTSEDSAVYYCARLGRYYFDYWGLGTTLTVSS VL: NIVMTQSPKSMSVSVGERVTMNCRASEIVGTYVSWYQQKPEQSPKLLIYGAFNRYTGVPDRFTGSRSGTDFSLNISNVQAEDLADYLCGQSYDSPYTFGGGTKLEIK"

# From patent publication US20210070855A1
